Test results published in PubChem BioAssay AID493014 (National Center for Advancing Translational Sciences (NCATS), 2011).
Out of some 340,000 compounds screened, about 170 (0.05%) were called active. The inconclusive results got no clear call from the source; some entries with a clear call stand among them for comparison. The call rests on the fitted dose curve; in most records, active means well fitted inhibition curve with a large enough effect in the signal ratio, with a control signal flat (not every such curve was filed as active); inconclusive means small, poorly fitted or top-dose-only effect, or effect the other way, or a change in a side signal; inactive means flat fitted curve, though single readings scatter; the % refers to the signal ratio. A potency beside an inconclusive call is a rough fit, not a confirmed value.

assay: qHTS Assay to Find Inhibitors of Chronic Active B-Cell Receptor Signaling; conditions: ABC-DLBCL IkBa-CBG/CBR reporter, luminescence ratio (green luciferase fused to IkBa over red control in TMD8 lymphoma cells), 4 h; activity change, negative = inhibition: at 46.1 µM (top of the series);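 on activity change, negative = inhibition: plate controls were basal doxycycline-induced cells for no effect and cells given 10 µM MG132 for full effect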
Procedure, shortened: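 Doxycycline induced both beetle luciferases in TMD8 lymphoma cells; IKK-driven degradation limits the IkappaBalpha-fused green signal, while red luminescence normalises for cell number and nonspecific effects. Compounds tested up to 46 uM, 4 hrs.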
Potency means the concentration at half of the fitted maximal effect.

Row | Structure (SMILES) | Potency | activity change, negative = inhibition
1 | O=c1oc(-c2ccccc2Cl)nc2ccsc12 | inconclusive: 29.1 µM [falling, single point] | 
2 | COc1ccccc1/C=N/OCc1ccc(C#N)cc1 |  | inconclusive: -7.56%
3 | COc1ccc(S(=O)(=O)N(CC(N)=O)C2CCCCC2)cc1Cl |  | inactive: 0.114%
4 | COc1cc2nc(SCc3ccc(Cl)cc3Cl)n(Cc3cccs3)c(=N)c2cc1OC | inconclusive: 7.94 µM [activator, partial curve, poor fit] | 
5 | CNC(=O)c1ccc(-c2cc(C(F)(F)F)nn2C)s1 |  | inconclusive: 7.99%
6 | COc1cccc(NC(=O)c2ccc(-n3cccn3)nc2)c1 | inconclusive: 22.4 µM [falling, partial curve] | 
7 | C/C(N)=C(/C#N)C(=O)COC(=O)c1cccc(C)c1O |  | inconclusive: 17.7%
8 | COc1ccccc1CNC(=O)C1CC2Cn3c(nc4cc5ccccc5cc43)C2N1C (stereo unspecified) |  | inactive: -0.0712%
9 | C(=C\c1ccco1)/c1nc2ccccc2[nH]1 | inconclusive: 14.1 µM [falling, single point] | 
10 | Cc1ccc(-c2ccc(/C=C3\C(=O)ON=C3c3ccccc3)o2)c([N+](=O)[O-])c1 |  | inconclusive: -26.8%
11 | COC(=O)C(C)N(C(=O)c1ccc(C(=O)c2ccccc2)cc1)c1c(C)cccc1C (stereo unspecified) |  | inconclusive: 15.7%
12 | Cc1cc(C)c(NC(=O)CNC(=O)c2cc([N+](=O)[O-])ccc2N2CCOCC2)c(C)c1 |  | inconclusive: 0.777%
13 | Cc1ccc(Cn2ccc(NC(=O)c3c(-c4ccccc4Cl)noc3C)n2)cc1 | inconclusive: 7.31 µM [falling, partial curve] | 
14 | S=c1[nH]nc(NCCCN2CCOCC2)s1 |  | inconclusive: 11.4%
15 | COc1cccc(N=Nc2ccc(O)c3ncccc23)c1 | inconclusive: 10 µM [falling, partial curve, poor fit] | 
16 | COc1ccccc1NC(=O)COC(=O)c1[nH]c(=O)[nH]c(=O)c1N |  | inconclusive: -7.29%
17 | CSc1cccc(NC(=O)C2(S(=O)(=O)c3ccc(C)cc3)CC2)c1 |  | inconclusive: -0.327%
18 | Cc1ccsc1/C=N/NC(=O)Cc1ccc(Cl)cc1 |  | inactive: -7.18%
19 | COc1cc(OC)c2c(-c3ccccc3)cc(=O)oc2c1C(CCN1CCCCC1)c1ccc2c(c1)OCO2 (stereo unspecified) |  | inactive: -7.81%
20 | CCOc1ccc(Br)cc1C(=O)Nc1ccc(C(=O)NCC(C)C)cc1 |  | inconclusive: 4.89%
21 | C/C(=N\N=C(/N)SC1CC(=O)N(c2ccc(Br)cc2)C1=O)c1cccs1 (stereo unspecified) |  | inconclusive: 0.812%
22 | CN(C(=O)COC(=O)c1cc(S(=O)(=O)N2CCCCC2)ccc1N1CCOCC1)C1CCS(=O)(=O)C1 (stereo unspecified) |  | inconclusive: -1.22%
23 | CCOC(=O)Nc1nc(-c2ccccc2)c(C(=O)c2ccccc2)s1 |  | inconclusive: 19.3%
24 | CCCCCCCCCCOC(=O)Cn1c(COc2ccc(OC)cc2)[n+](C)c2ccccc21 |  | inconclusive: 2.14%
25 | CC(=O)Nc1ccc2c(c1)nc(CCN1CCC(C)CC1)n2C |  | inactive: -8.33%
26 | COc1ccc(C(C)=O)cc1COC(=O)CSC(C)C(=O)Nc1cc(C)on1 (stereo unspecified) | inconclusive: 16.4 µM [rising, partial curve] | 

Row | Structure (SMILES) | Potency | activity change, negative = inhibition
27 | Cc1nc(C)c(-c2csc(Nc3ccccn3)n2)s1 | inconclusive: 25.1 µM [falling, single point] | 
28 | CCOc1ccc(/C=N/NC(=O)c2ccccc2C)cc1CN1CC2CC(C1)c1cccc(=O)n1C2 (stereo unspecified) | inconclusive: 3.26 µM [falling, partial curve, poor fit] | 
29 | CCOc1ncccc1C(=O)N1CCN(c2cc(Cl)ccc2C)CC1 | inconclusive: 11.2 µM [falling, partial curve] | 
30 | CCc1nnc(NC(=O)COc2ccc(N(C)S(=O)(=O)c3ccc(C)cc3)cc2)s1 |  | inconclusive: 1.27%
31 | O=C(CCc1ccccc1)NNC(=S)NC(=O)c1ccc(Cl)cc1 | inconclusive: 2.91 µM [rising, single point] | 
32 | C=CCNC(=O)c1onc(CSc2ccc(F)c(F)c2)c1C(=O)O |  | inconclusive: -12.8%
33 | O=C(CCCCCNc1nc(=S)[nH]c2ccccc12)NCCc1c[nH]c2ccccc12 | inconclusive: 13 µM [falling, partial curve, poor fit] | 
34 | CCc1ccc(-c2cc(C)no2)cc1S(=O)(=O)N1CCCN(Cc2ccc(F)cc2)C1 |  | inconclusive: -9.04%
35 | CCC1=C(OC(=O)N(CC)CC)N2C(=O)OC(=NCC(=O)OC)[C@]2(C)[C@H]2C1=CC[C@H]1C(=O)N(C)C(=O)[C@H]12 |  | inconclusive: 1.69%
36 | COc1cc(/C=N/n2c(C)n[nH]c2=S)ccc1OCc1ccc(F)cc1 | inconclusive: 20.6 µM [falling, partial curve, poor fit] | 
37 | COc1ccccc1-c1coc2cc(OC(=O)/C=C/c3ccccc3)ccc2c1=O | inconclusive: 5.8 µM [falling, partial curve, poor fit] | 
38 | CC(Oc1ccc2c(-c3ccccc3)cc(=O)oc2c1)C(=O)NCc1ccccn1 (stereo unspecified) |  | inconclusive: 14.5%
39 | O=C(NCCc1cccs1)C1CC(c2cccc(F)c2)=NO1 (stereo unspecified) |  | inconclusive: 0.181%
40 | CCN=c1scc(C)n1/N=C/c1cc(Br)c(O)c(OC)c1 |  | inconclusive: 10.9%
41 | CCOC(=O)c1sc(NC(=O)CCc2ccccc2)nc1C | inconclusive: 20 µM [falling, partial curve, poor fit] | 
42 | c1ccc(C2Oc3ccccc3C3CC(c4cccs4)=NN32)cc1 (stereo unspecified) | inconclusive: 32.6 µM [falling, partial curve, poor fit] | 
43 | O=C(COc1ccccc1)N1CCN=C1SCc1cccnc1 | inconclusive: 17.8 µM [falling, partial curve, poor fit] | 
44 | Cc1ccc(S(=O)(=O)CCSc2cccc(C(=O)Nc3ccccc3C(=O)O)c2)cc1 |  | inconclusive: -9.67%
45 | COc1ccc(S(=O)(=O)Nc2ccc3oc(C)c(C(C)=O)c3c2)cc1 | inconclusive: 25.9 µM [falling, partial curve, poor fit] | 
46 | Cc1cc(Br)c2c(c1)/C(=C/C(=O)c1cccs1)C(=O)N2 |  | inconclusive: -0.638%
47 | O=C(Oc1ccc(/C=N/Nc2ccccc2)cc1)c1ccccc1 |  | inactive: 0.699%
48 | CN(C)CC/C=C1\c2cc(F)ccc2CSc2ccccc21 |  | inconclusive: -4.41%
49 | CCCCCCCN(C(=O)CCl)c1cccc(C)c1 |  | inconclusive: 12.6%
50 | O=C(NCCc1ccc(Cl)cc1)c1cc(S(=O)(=O)N2CCCCC2)c[nH]1 | inconclusive: 35.5 µM [falling, single point] | 
51 | Cc1cccc(C(=O)Nc2ccc(NC(=O)c3ccccc3)cc2)c1 |  | inconclusive: -6.46%
52 | O=C(COC(=O)c1n[nH]c2ccccc12)Nc1ccccc1F | inconclusive: 20.6 µM [falling, partial curve] | 

Row | Structure (SMILES) | Potency | activity change, negative = inhibition
53 | O=C(CN1CCOCC1)NNc1nc(-c2ccccc2)c2cc(Br)ccc2n1 |  | inconclusive: -6.61%
54 | CCn1c2c(c(C)cc1=O)C(=O)CC(C)(C)C2 |  | inactive: -3.66%
55 | CCOc1ccccc1N1CCN(C(=O)c2ccccc2SCC(=O)N2CCCC2)CC1 |  | inconclusive: 4.29%
56 | CCOC(=O)CN1CC23C=CC(O2)C(C(=O)NCc2ccc(F)cc2)C3C1=O (stereo unspecified) |  | inconclusive: 5.88%
57 | O=C(O)C1C2C=CC(CC2)C1C(=O)O (stereo unspecified) |  | inconclusive: 1.26%
58 | COc1cc(C2CC(=O)Oc3c(C(CCN4CCN(c5ccccc5)CC4)c4ccc(N(C)C)cc4)c(OC)cc(OC)c32)cc(OC)c1OC (stereo unspecified) |  | inconclusive: -0.0675%
59 | Cc1ccc(NC(=O)C(=O)C2C(=O)Nc3ccccc32)cc1 (stereo unspecified) | inconclusive: 22.4 µM [falling, single point] | 
60 | CCCc1cc(=O)n2[nH]c(CCc3ccccc3)nc2n1 | inconclusive: 35.5 µM [rising, single point] | 
61 | CCCCSc1nnc(-c2cc(Br)ccc2N)c(=O)[nH]1 |  | inconclusive: -0.199%
62 | COC(=O)c1cc2c(ccn2-c2ccc(F)cc2)n1CC(=O)N1CCN(C(=O)c2ccco2)CC1 |  | inconclusive: -4.04%
63 | Cc1ccc(S(=O)(=O)C(CNC(=O)C(=O)NCCc2ccccc2)c2cccs2)cc1 (stereo unspecified) |  | inactive: 3.14%
64 | S=C(Nc1ccc(Nc2ccccc2)cc1)Nc1ccccn1 |  | inconclusive: -1.65%
65 | COC(=O)CCCC[C@H]1SC[C@H]2NC(=O)N[C@]21O |  | inactive: 0.272%
66 | O=S(=O)(Cc1noc(-c2ccccc2Cl)n1)c1ccccn1 |  | inconclusive: 9.06%
67 | CC1CCCC(C)N1c1nnc(NC(=O)c2cc(-c3ccc(Br)cc3)on2)s1 (stereo unspecified) | inconclusive: 1.84 µM [rising, full curve, poor fit] | 
68 | O=C(O)CSCc1cn2cc(Cl)ccc2n1 |  | inconclusive: -13.5%
69 | N#C/C(=C\c1cn(Cc2ccccc2)c2ccccc12)C(=O)NCc1ccco1 |  | inconclusive: 7.9%
70 | O=c1ccc2cc3c4c(c2o1)CCCN4CCC3 |  | inactive: -1.45%
71 | CCc1noc(C)c1C(=O)Nc1nc2ccc(S(C)(=O)=O)cc2s1 | inconclusive: 3.66 µM [falling, single point] | 
72 | CC(=O)Nc1ccc(N2C(=O)CSC2c2cccc([N+](=O)[O-])c2)cc1 (stereo unspecified) |  | inconclusive: -0.314%
73 | Cc1ccccc1N1C(=O)c2sc3nc4c(c(=O)n3c2C1=O)CCC4 |  | inconclusive: -3.16%
74 | COc1ccccc1NC(=O)Nc1nc(CC(=O)NCc2ccccn2)cs1 | inconclusive: 29.1 µM [falling, single point] | 
75 | Clc1ccc(SCc2cc(-c3ccccc3)on2)cc1 |  | inconclusive: 4.51%
76 | CC(C)(C)c1nnc(NS(=O)(=O)c2ccc([N+](=O)[O-])cc2)s1 |  | inconclusive: 5.21%

Shown tab-delimited: part of the list above
Row	Structure (SMILES)	Potency	activity change, negative = inhibition
54	CCn1c2c(c(C)cc1=O)C(=O)CC(C)(C)C2		inactive: -3.66%
56	CCOC(=O)CN1CC23C=CC(O2)C(C(=O)NCc2ccc(F)cc2)C3C1=O (stereo unspecified)		inconclusive: 5.88%
57	O=C(O)C1C2C=CC(CC2)C1C(=O)O (stereo unspecified)		inconclusive: 1.26%
58	COc1cc(C2CC(=O)Oc3c(C(CCN4CCN(c5ccccc5)CC4)c4ccc(N(C)C)cc4)c(OC)cc(OC)c32)cc(OC)c1OC (stereo unspecified)		inconclusive: -0.0675%
59	Cc1ccc(NC(=O)C(=O)C2C(=O)Nc3ccccc32)cc1 (stereo unspecified)	inconclusive: 22.4 µM [falling, single point]	
61	CCCCSc1nnc(-c2cc(Br)ccc2N)c(=O)[nH]1		inconclusive: -0.199%
63	Cc1ccc(S(=O)(=O)C(CNC(=O)C(=O)NCCc2ccccc2)c2cccs2)cc1 (stereo unspecified)		inactive: 3.14%
64	S=C(Nc1ccc(Nc2ccccc2)cc1)Nc1ccccn1		inconclusive: -1.65%
66	O=S(=O)(Cc1noc(-c2ccccc2Cl)n1)c1ccccn1		inconclusive: 9.06%
67	CC1CCCC(C)N1c1nnc(NC(=O)c2cc(-c3ccc(Br)cc3)on2)s1 (stereo unspecified)	inconclusive: 1.84 µM [rising, full curve, poor fit]	
68	O=C(O)CSCc1cn2cc(Cl)ccc2n1		inconclusive: -13.5%
70	O=c1ccc2cc3c4c(c2o1)CCCN4CCC3		inactive: -1.45%
71	CCc1noc(C)c1C(=O)Nc1nc2ccc(S(C)(=O)=O)cc2s1	inconclusive: 3.66 µM [falling, single point]	
72	CC(=O)Nc1ccc(N2C(=O)CSC2c2cccc([N+](=O)[O-])c2)cc1 (stereo unspecified)		inconclusive: -0.314%
73	Cc1ccccc1N1C(=O)c2sc3nc4c(c(=O)n3c2C1=O)CCC4		inconclusive: -3.16%
75	Clc1ccc(SCc2cc(-c3ccccc3)on2)cc1		inconclusive: 4.51%
76	CC(C)(C)c1nnc(NS(=O)(=O)c2ccc([N+](=O)[O-])cc2)s1		inconclusive: 5.21%
